Screen size: about 3,000 compounds; about 45 (2%) showed an effect of 50% or more. The list shows a part of the results.

The test deals with MOLM1 and UCSD/AML1 (averaged). As to the kind of experiment: cell viability relative to DMSO control (POC); higher = less growth inhibition. The note with it: 1 µM; 72 h. The protocol:
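Primary viability screen in the 3q26 EVI1-high AML cell lines MOLM1 and UCSD/AML1, compounds at 1 uM for 72 h. ATP CellTiter-Glo read-out given as percent viable over DMSO control (POC), averaged over duplicates. This mapping covers the TimTec NDL-3000 natural derivative library, whose compounds are identified by TimTec catalogue codes (ST...).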
By cell viability is commonly meant a read-out of living cells in per cent, often relative to untreated cells. Consider `C=C(C)C1CCC2(COC(=O)/C=C/c3ccccc3)CCC3(C)C(CCC4C5(C)CCC(OC(=O)/C=C/c6ccccc6)C(C)(C)C5CCC43C)C12` (stereo not given), for which the cell viability stood at 104%.
Then `CSc1ccc(OCCN=Cc2c(O)c(O)c(C(C)C)c3cc(C)c(-c4c(C)cc5c(C(C)C)c(O)c(O)c(C=NCCOc6ccc(SC)cc6)c5c4O)c(O)c23)cc1`, with 113%; and `CCOC(=O)/C=C/c1cccc([N+](=O)[O-])c1`, with 101%; and `O=C(Cn1c(=O)cc(C(=O)N2CCOCC2)c2ccccc21)Nc1ccccc1F`, with 97.1%.
Take `O=C(OCc1ccccc1)C1CCCN1c1nc(-c2ccc(Br)cc2)cs1` (stereo not given): the cell viability turned out to be 99.9%.
Then `Cc1cccc(NC(=O)C(Cc2c[nH]c3ccccc23)NC(=O)Oc2ccccc2)c1` (stereo not given), with 102%; and `COc1cc(C(=O)N(Cc2nc(-c3cccc(C)c3)no2)C(C)C)cc(OC)c1OC`, with 96.2%; and `CCOc1cc(C2C(C(=O)OC)=C(C)NC3=C2C(=O)CC(c2ccc(OC)cc2)C3)cc(Br)c1O` (stereo not given), with 111%.
For `O=c1c(Cc2ccccc2)c(O)c2ccccc2n1-c1ccccc1` the value was 102%; for `COc1cc(C(=O)N2N=C3CCCCC3C2(O)C(F)(F)F)cc(OC)c1OC` (stereo not given), 106%; for `COc1ccc(CC(=O)NNC(=O)CCC(=O)O)cc1`, 108%.
For `CC1(C)OC(c2cccc(OCc3cc(=O)[nH]c4ccccc34)c2)OC1(C)C` the value was 102%.
Regarding `COc1cc(C(=O)CCN(C)C)cc(OC)c1OC`, the cell viability worked out at 83%.
For `Cc1cc(=O)oc2cc(OCC(=O)Oc3ccc(Cl)c(Cl)c3)ccc12` the value was 102%; for `Cc1c(-c2ccc(O)cc2)c(=O)oc2ccc(Br)cc12`, 97.1%; for `COc1ccc(C(=O)Nc2ccc(C)cc2Br)cc1OC`, 101%.
On to `CN(C)c1ccc(/C=N/NC(=O)CNc2n[nH]c(=O)[nH]c2=O)cc1`, for which the cell viability came out at 96.6%.
For `Cc1ccc2c(CN3CCN(Cc4cccc(Br)c4)CC3)cc(=O)oc2c1` the value was 106%; for `COc1ccc(-c2oc3cc(C)ccc3c(=O)c2O)cc1`, 93.9%; for `COc1ccc2[nH]cc(CCNC(=O)C(=O)c3c(-c4ccccc4)n(C)c4ccccc34)c2c1`, 95.2%.
Regarding `COC(=O)C1CC23CCC[N+]4(C)CCC5(c6ccccc6NC15CC2)C34` (stereo not given), the cell viability was 98.6%.
For `Cc1ccc2c(O)c([N+](=O)[O-])c(=O)oc2c1` the value was 103%; for `CCOc1ccc(CCNC(=O)c2cc3ccccc3oc2=O)cc1OCC`, 95.7%.
For `CCCCCCCCOCCNC(=O)c1cc(OC)c(OC)c(OC)c1`, the cell viability was 96.6%.
Then `COc1ccc2[nH]cc(CCNS(=O)(=O)Cc3ccccc3)c2c1`, with 100%.
For `COc1ccc(-c2coc3cc(OC)c(OC)cc3c2=O)cc1` the value was 97%; for `COC(=O)C(Cc1ccc(O)cc1)NC(=O)C(NC(=O)OCc1ccccc1)C(C)C` (stereo not given), 84.7%.
For `CCNC(=O)C(=O)NCCc1c[nH]c2ccccc12` the value was 109%.
In the case of `CCOC(=O)C1=C(c2ccccc2)N(C)C(=O)NC1c1ccc(O)c(OC)c1` (stereo not given), the cell viability came to 91.8%.
Then `CC(=O)OC1CCC2(C)C(=CCC3C2CCC2(C)C3CC3OC32[C@H](C)OC(C)=O)C1` (stereo not given in full), with 107%; and `COc1cc(C2C(C(=O)OC(C)C)=C(C)NC3=C2C(=O)CCC3)cc(Cl)c1O` (stereo not given), with 113%; and `O=c1oc2cc(O)ccc2c(Cc2ccc(Cl)cc2)c1-c1ccccc1`, with 99.4%.
For `COC(=O)c1cc(OC)c(OC)cc1NC(=O)c1c[nH]c2ccccc12` the value was 94.5%.
For `CNC(=O)Cn1cnc2c1c(=O)n(C)c(=O)n2C`, the cell viability came out at 98.1%.
For `Cn1c(=O)c2c(nc3scc(CN4CCNCC4)n32)n(C)c1=O` the value was 105%.
Then `COc1cc(C2C(C#N)=C(N)Oc3n[nH]c(C(C)C)c32)ccc1O` (stereo not given), with 104%; and `COc1cc(N)cc(CCC(=O)O)c1OC`, with 91%; and `O=C(/C=C/c1ccc(Cl)cc1Cl)c1cccc2ccccc12`, with 95.1%.
Then `O=C(/C=C/c1cccc(NC(=O)c2ccc(Br)cc2)c1)c1cccc(NC(=O)c2ccc(Br)cc2)c1`, with 1.83%; and `CCOc1ccccc1-c1nc(CSc2nc3c(=O)[nH]cnc3n2-c2ccc(C)cc2)c(C)o1`, with 101%; and `CCCCc1[nH]nc2c1C(c1cc(OC)c3c(c1)OCO3)C(C#N)=C(N)O2` (stereo not given), with 102%.
For `CC(=O)N1CCc2ccccc2C1`, the cell viability was 104%.
Take `COC(=O)/C(C#N)=C/c1cc(OC)cc(OC)c1`: the cell viability came out at 90.6%.
Then `CCOC(=O)c1c(CN2CCCCC2)n(-c2ccccc2)c2cc(Br)c(OC)cc12`, with 90.2%; and `Cc1c(-c2cccc(Cl)c2)c(=O)oc2cc(O)ccc12`, with 103%.
Then `CCOC(=O)C(Cc1ccccc1)NC(=O)c1ccccc1` (stereo not given), with 103%; and `COc1cccc(C(=O)N2CCN(C(=O)c3cccc(OC)c3OC)CC2)c1`, with 103%.
For `COCCOC(=O)c1c(C)n(CCCNc2ccc([N+](=O)[O-])cc2Cl)c2c1cc(O)c1ccccc12` the value was 92.1%; for `O=C(Cc1n[nH]c(=O)[nH]c1=O)N/N=C/c1c(O)ccc2ccccc12`, 109%.
For the compound `CCc1ccc(C(c2c(O)c3cccc(-c4ccccc4)c3[nH]c2=O)c2c(O)c3ccccc3n(-c3ccccc3)c2=O)cc1` (stereo not given), the cell viability worked out at 99.8%.
For `COc1ccc(Cl)cc1NC(=O)CSc1nc2c(=O)[nH]cnc2n1C` the value was 97.5%; for `O=c1oc2cc(O)ccc2c(Cc2ccccc2)c1-c1ccccc1`, 95.9%.
Then `N#Cc1nc2ccccc2n1CC(=O)NCc1ccc2c(c1)CCC(=O)N2`, with 107%; and `NC(=O)NCCCCC(N)C(=O)O` (stereo not given), with 95.9%; and `O=C(CN1CCc2ccccc2C1)Nc1ccc(S(=O)(=O)N2CCOCC2)cc1`, with 108%.
For `Cc1[nH]c2ccc(O)cc2c1C(=O)O` the value was 108%.
For the compound `COc1ccc(/C=C/C(C)=O)cc1`, the cell viability amounted to 94.9%.
For `Cc1[nH]c2ccccc2c1CCNC(=O)c1cc(S(=O)(=O)NC2CC2)c(Cl)cc1Cl` the value was 96.6%; for `C#CCOc1ccc(C2Nc3ccccc3NC3=C2C(=O)CC(C)(C)C3)cc1` (stereo not given), 96.1%; for `COc1ccc(C(=O)[C@@H]2[C@H]3C4COC(O4)C(=O)[C@@H]3[C@H]3C=Cc4ccccc4N32)cc1` (stereo not given in full), 104%.
In the case of `COc1ccc2cc(-c3cccc(Cl)c3)c(=O)oc2c1`, the cell viability turned out to be 109%.
Consider `COc1ccc(CC(=O)N/N=C/c2c(O)c(O)c(C(C)C)c3cc(C)c(-c4c(C)cc5c(C(C)C)c(O)c(O)c(/C=N/NC(=O)Cc6ccc(OC)c(OC)c6)c5c4O)c(O)c23)cc1OC`, for which the cell viability amounted to 103%.
For `COc1cc(C(=O)NC(C(=O)OCCC(C)C)c2ccccc2)cc(OC)c1OC` (stereo not given) the value was 92.6%.
On to `CC(=O)c1cc(O)cc(O)c1`, for which the cell viability amounted to 101%.
For `COc1ccc(NC(=O)c2cc(OC)c(OC)c(OC)c2Br)cc1OC` the value was 92.4%; for `CCn1c(SCC(=O)Nc2ccc(C)c(C)c2)nc2c(=O)[nH]cnc21`, 94.7%; for `CCn1cc(/C=C/C(=O)c2ccc(O)cc2)c(C)n1`, 114%.
Then `CCOc1ccccc1NC(=O)CSc1nc2c(=O)[nH]cnc2n1C`, with 111%.
`CCOc1ccc(NC(=O)CSc2nc3c(=O)[nH]cnc3n2-c2ccc(C)cc2)cc1`: the cell viability is 100%.
For `C1COCCN1.COC(=O)C1=C(C)NC(=S)C(=C=N)C1c1cc(OC)c(OC)c(OC)c1` (stereo not given) the value was 117%.
`CC(=O)NC(Cc1cc2ccccc2[nH]1)C(=O)NCc1ccco1` (stereo not given): the cell viability was determined as 98.6%.
For `COc1ccc2oc(=O)cc(CN3CCN(Cc4ccccc4F)CC3)c2c1` the value was 90.8%; for `CCOc1ccccc1/C=N/NC(=O)CNc1n[nH]c(=O)[nH]c1=O`, 102%; for `Cc1ccc(C)c2c1NC(C(=O)O)C1CC=CC21` (stereo not given), 97%.
Then `S=c1nc[nH]c2nc[nH]c12`, with 89.3%.
Regarding `COc1ccc(-c2nc(CSc3nc4ccccc4c(=O)[nH]3)c(C)o2)cc1`, the cell viability was determined as 94.9%.
For `COc1ccc2c(C)nc(/N=C(\N)NC(C)=O)nc2c1` the value was 90%; for `Cc1ccc(NC(=O)c2cc3ccccc3oc2=N)cc1C`, 94.9%; for `CCOc1cc2c(cc1OCC)C(c1ccc(C(=O)O)cc1)NCC2` (stereo not given), 97.7%.
Turning to `C=CCn1c(=O)n(CC=C)c(=O)n(CC=C)c1=O`, the cell viability was 88%.
Then `CCN(CC)C(=O)c1cc(=O)n(CC(=O)Nc2cccc(F)c2)c2ccccc12`, with 96.5%; and `Cn1c(=O)cc(C(=O)O)[nH]c1=O`, with 97.9%.
In the case of `COc1ccc(-c2nc(CSc3nc4c(=O)[nH]cnc4n3C)c(C)o2)cc1OC`, the cell viability came out at 88.7%.
Turning to `O=c1oc2cc(O)ccc2cc1-c1cccc(Br)c1`, the cell viability stood at 99.9%.
Then `COc1cc(-c2nnc(CSc3nc(-c4ccccc4)c(-c4ccccc4)[nH]3)o2)cc(OC)c1OC`, with 103%; and `O=c1cc(-c2ccccc2)oc2c(Br)cc(Br)cc12`, with 113%.
Consider `CCOC(=O)c1c(CC(C#N)(c2ccccc2)c2ccccc2)n(C)c2cc(Br)c(OC)cc12`, for which the cell viability came out at 17.7%.
Consider `Cc1ccccc1OCC(=O)NC(Cc1c[nH]c2ccccc12)C(=O)O` (stereo not given), for which the cell viability worked out at 101%.
Then `O=C(O)c1cc(O)c(O)c(O)c1`, with 94.8%.
For `Cc1ccc2c(c1)C(=O)N(CC(=O)O)C2=O` the value was 99.9%.
Then `CCCCc1c(O)c2ccccc2n(-c2ccccc2)c1=O`, with 94.3%.
Consider `CS(=O)(=O)NC(Cc1c[nH]c2ccccc12)C(=O)O` (stereo not given), for which the cell viability is 102%.
Then `CCc1ccc(C(CC(=O)c2ccc3c(c2)OCO3)Nc2ccc(Cl)cc2)cc1` (stereo not given), with 102%; and `CCOC(=O)c1sc(N)nc1-c1ccccc1`, with 110%.
As for `Cn1c(=O)c2c(nc(NCCOc3ccc(C(C)(C)C)cc3)n2C)n(C)c1=O`, the cell viability stood at 98.4%.
Then `COc1cc(C2C(C#N)=C(N)Oc3n[nH]c(C)c32)ccc1O` (stereo not given), with 110%; and `COc1cc2c(cc1/C=C(\C#N)c1ccc(Cl)cc1)OCO2`, with 98.9%; and `CC(=O)N1CCCCC1c1cccnc1.O.O.[Cl][Cu][Cl]` (stereo not given), with 114%.
Then `COC(=O)C1=C(C)NC2=C(C(=O)CCC2)C1c1coc2ccc(Cl)cc2c1=O` (stereo not given), with 116%; and `CC(=O)N1CC2c3ccccc3CCN2C1c1ccccc1` (stereo not given), with 101%.
For `CCCNC(=O)c1cc(=O)n(CC(=O)Nc2ccccc2C)c2ccccc12` the value was 113%; for `Cc1ccc(OCC(=O)c2cc(C)c(O)cc2O)cc1`, 88.2%; for `COC(=O)C1=C(N)Oc2c(oc(CO)cc2=O)C1c1cc(Cl)ccc1Cl` (stereo not given), 101%.
As to `CO[C@@H]1O[C@H](C(=O)O)[C@H]2OC(C)(C)O[C@@H]12`, the cell viability is 94.4%.
Then `Cc1ccc(S(=O)(=O)N2Cc3ccccc3CC2C(=O)NCc2ccc(Br)cc2)cc1` (stereo not given), with 110%.

The record behind these values is the supplement of paper PMC11150407.
